# Test results published in PubChem BioAssay AID2417 (National Center for Advancing Translational Sciences (NCATS), 2010).
# The campaign covered roughly 140,000 compounds. About 4,300 (3.1%) were called active. This list was built around the results that the source calls inconclusive (neither active nor inactive); the mix of calls is not that of the screen.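 How the source made its calls: active means readout at or below -70, meaning at least 70% loss of cells showing the perinucleolar compartment, a nuclear body marking cancer cells; inconclusive means readout between -30 and a set limit; inactive means the rest.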
# Assay: High Content Assay for Compounds that inhibit the Assembly of the Perinucleolar Compartment;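 further: plate controls were DMSO wells for no effect and camptothecin positive control wells for full effect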
# Settings: PC3M PTB-GFP, PNC prevalence imaging, 16 h; at 10 µM; active compounds read low
# Summary of the method: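 Read-out is percentage of cells bearing a perinucleolar compartment, from automated 20x imaging of fixed, Hoechst-stained PC3M PTB-GFP cells. Cells were seeded 4 h, then exposed 16 h to compound (23 nl of library stock) in duplicate plates.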
row,SMILES,"activity change (PNC), negative = inhibition"
1,O=C(Oc1ccc2ccc(=O)oc2c1)c1cccs1,inactive: 19.5%
2,COc1ccc(N=Cc2c(O)c3ccccc3oc2=O)cc1,inactive: 14.6%
3,Cc1ccc2c(c1)[nH]c1c(=O)n(CCN3CCNCC3)cnc12,inconclusive: -63.5%
4,Cc1ccc(C(=O)Nc2ccc(Oc3ccc(C(=O)O)c(C(=O)O)c3)cc2)cc1C,inconclusive: -56.8%
5,COc1cc(C(=O)N2CCN(C(=O)c3ccco3)CC2)cc(OC)c1OC,inactive: -1.28%
6,Cc1cc(C)c2c(N)c3ccccc3nc2n1,inconclusive: -52.8%
7,Cc1cc(C)cc(N2C(=O)CSC2c2cccs2)c1 (stereo not drawn),inconclusive: -55.4%
8,Oc1c(Cl)cc(Cl)cc1C(C#Cc1ccccc1)N1CCOCC1 (stereo not drawn),inconclusive: -42%
9,C/C(=N\NC(=O)c1nc(C)cc(C)n1)c1ccccc1,inconclusive: -36.6%
10,COc1cccc(CN2C(=O)CN(C3CCCCC3)C(=O)C2c2ccc(F)cc2)c1 (stereo not drawn),inconclusive: -37.7%
11,Cc1cc(C)cc(NC(=O)CSc2nnc(CNC(=O)c3cccs3)o2)c1,inconclusive: -37%
12,NC(=O)[C@H](Cc1cc2ccccc2s1)NC(=O)[C@@H]1CC2(CC(c3cccc(NC(=O)[C@@H]4CCC(=O)N4)c3)=NO2)CN1C(=O)/C=C/Sc1ccccc1 (stereo partly drawn),inconclusive: -43%
13,O=C(c1ccco1)N1CCN(C(=O)C(Sc2ccccc2)c2ccccc2)CC1 (stereo not drawn),inconclusive: -47.9%
14,CCCN1C(=O)c2ccc(C(=O)NC3CCCCC3)cc2C1=O,inconclusive: -58.4%
15,C(=N\Nc1ccc(-n2ccnc2)nn1)/c1ccccc1,inconclusive: -41.7%
16,COc1ccc(CN(C)C2CCCCC2)c(C)c1C,inactive: -30%
17,O=C(CCc1ccc(O)c(O)c1)NNC(=S)NCCc1ccccc1,inconclusive: -75.1%
18,CS(=O)(=O)c1ccc(C(=O)NC2CCCCC2)cc1,inconclusive: -41%
19,CCC(C)C(NC(C)=O)C(=O)NC(=O)NC(c1ccccc1)c1ccccc1 (stereo not drawn),inconclusive: -59%
20,CC(C)OC(=O)CSc1nnc(-c2ccncc2)n1N,inactive: -24%

row,SMILES,"activity change (PNC), negative = inhibition"
1,COc1ccc(S(=O)(=O)C(C#N)c2nc3ccccc3nc2N2CCCC(C)C2)cc1 (stereo not drawn),inconclusive: -75.4%
2,COc1ccc(C(=O)Nc2cc(C(=O)c3ccccc3)c(C)oc2=O)cc1,inactive: -6.35%
3,COc1ccc(NC(=O)CCNS(=O)(=O)c2ccc3c(c2)c(=O)n(C)c(=O)n3C)cc1,inconclusive: -30.6%
4,Cc1cccn2c(=O)c3cc(C(=O)NCc4ccco4)c(=N)n(CCOCCO)c3nc12,inconclusive: -60%
5,CCn1c2ccccc2c2nnc(SCCCn3c(=O)[nH]c4ccccc43)nc21,inconclusive: -79.6%
6,O=C(NC1CCCCC1)C(c1cccs1)N(C(=O)c1ccccn1)c1ccccc1 (stereo not drawn),inconclusive: -31.8%
7,CN(C)S(=O)(=O)c1cc(NC(=O)CSc2ncc(C(F)(F)F)cc2Cl)ccc1Cl,inactive: 2.8%
8,Cc1ccc(/C=N\Nc2nc3ccc(Cl)cc3[nH]2)o1,inconclusive: -42%
9,CCc1cccc(C)c1NC(=O)CSc1nnc(CCCOc2ccc(Cl)cc2Cl)n1C,active: -113%
10,CC1CCc2nn(CC(=O)NCc3ccco3)cc2C1 (stereo not drawn),inconclusive: -33.4%
11,O=C(NCC(c1ccc(F)cc1)N1CCOCC1)c1ccc(Br)o1 (stereo not drawn),inactive: -1.54%
12,Cc1c(C(=O)C(=O)N2CCCc3ccccc32)c2ccccc2n1C,inconclusive: -35.4%
13,COc1ccc(NCc2nnc(SCC(=O)Nc3nc(-c4ccccc4)cs3)n2-c2ccccc2)cc1,inconclusive: -64.4%
14,CCN1C(=O)CS/C1=N\c1nccs1,inconclusive: -65.7%
15,O=C1OC(c2ccccc2)=C/C1=C/N1CCOCC1,inactive: -19.8%
16,CCOC(=O)c1[nH]c(C)c(C(=O)NCc2ccc(Cl)cc2)c1C,inactive: 12.3%
17,C=CCc1ccccc1OCC(O)CN1CCN(c2ccccc2OC)CC1 (stereo not drawn),inconclusive: -65.3%
18,CCOc1ccc(C(=O)Nc2cc(C)c3c(=O)oc4ccccc4c3n2)cc1,inactive: 3.09%
19,O=C(CCCc1nc(-c2ccc(Cl)cc2)no1)Nc1cccnc1,inconclusive: -66.3%
20,O=C1OC(c2ccccc2)/C(=C(/O)c2ccccc2)C1=O (stereo not drawn),inconclusive: -49%

row,SMILES,"activity change (PNC), negative = inhibition"
1,COc1ccc(-c2nc(C#N)c(N3CCCCCC3)o2)cc1OC,inconclusive: -35.3%
2,COc1cccc(-n2c(SC3CCOC3=O)nc3ccccc3c2=O)c1 (stereo not drawn),active: -100%
3,O=C(CSc1nc2ccccc2n1Cc1ccccc1)N/N=C/c1ccco1,inconclusive: -30.3%
4,COc1nnc(-c2ccc(C(=O)N3C[C@@H]4C[C@H](C3)c3cccc(=O)n3C4)cc2)c2ccccc12,inactive: -7.39%
5,Cc1ccc2c(c1)nnn2C1CCN(C(=O)C2CCCCC2)CC1,inconclusive: -33.5%
6,CCCCS(=O)Cc1ccccc1 (stereo not drawn),inactive: 4.69%
7,O=c1nc2c(O)cccn2c2c1c(=O)[nH]c1ccccc12,inconclusive: -32.1%
8,Cn1c(SCC(=O)NCc2cccs2)nnc1-c1cccs1,inactive: 9.53%
9,CC(O)CNc1nc2c(c(=O)n(C)c(=O)n2C)n1Cc1cccc(C(F)(F)F)c1 (stereo not drawn),inconclusive: -75.6%
10,CCC(C)C(=O)Nc1nc(C)c(-c2csc(Nc3ccc(Cl)cc3)n2)s1 (stereo not drawn),inactive: 35.1%
11,CC(C)(C)NC(=O)c1cnn2c1NC(c1ccc(F)cc1)CC2C(F)(F)F (stereo not drawn),inconclusive: -33.7%
12,COC(=O)COc1nc(C)c2c(c1C#N)CC(C)(C)OC2,inconclusive: -44.6%
13,CNC(=S)Nc1cc(Cl)ccc1Oc1ccccc1,inconclusive: -57.4%
14,O=C(/C=C/c1ccc([N+](=O)[O-])cc1)NCc1ccco1,inconclusive: -54.4%
15,N/C(=N\OC(=O)C1CCCCC1)c1ccccn1,inactive: 54.4%
16,COc1ccc2c(-c3ccccc3)cc(N3CCOCC3)nc2c1,inconclusive: -38.2%
17,CCNc1nc(OC)nc(N2CCC(Cc3ccccc3)CC2)n1,inactive: -11.4%
18,COc1ccc(C2CC(c3ccc(Cl)cc3)Nc3nc(NC(=O)c4ccco4)nn32)cc1 (stereo not drawn),inconclusive: -45.1%

# For reference, part of the list above.
row,SMILES,"activity change (PNC), negative = inhibition"
2,COc1cccc(-n2c(SC3CCOC3=O)nc3ccccc3c2=O)c1 (stereo not drawn),active: -100%
3,O=C(CSc1nc2ccccc2n1Cc1ccccc1)N/N=C/c1ccco1,inconclusive: -30.3%
4,COc1nnc(-c2ccc(C(=O)N3C[C@@H]4C[C@H](C3)c3cccc(=O)n3C4)cc2)c2ccccc12,inactive: -7.39%
